Data from the supplement of paper PMC5949888.
± gives the standard deviation of the averaged measurements. Most values lie at the floor of the assay. Slopes are relative: functional sequences can read slightly below zero.

tested on: Saccharomyces cerevisiae PS128 hsf1 delta, HSF1(1-493) fusion; test: growth estimate (transactivation domain function in HSF1 fusion, heat-shock survival) (a.u. (slope of normalised read count over time)); higher = stronger growth at 37°C, i.e. more transactivation activity; conditions: library: random library

Row | Substance | growth estimate
1 | AGFLKQPVPASALVSHEHRL | < -0.25
2 | ERAWAQIGHPC | < -0.25
3 | ELPTGGRA | < -0.25
4 | VAFSSALYRCRVG | < -0.25
5 | SFRPWGGLFFR | < -0.25
6 | ITTLLRVTKGGLGTESV | < -0.25
7 | GEVLP | < -0.25
8 | SIVGDRQRSR | < -0.25
9 | DELYKVQRSHVT | < -0.25
10 | GRSD | < -0.25
11 | SKPQ | < -0.25
12 | NLCLWSNTSAVSKLNPSREP | < -0.25
13 | ENPAGSCVYDREWLLFVDYC | < -0.25
14 | RYKDNSVTLGIDAVTASGLV | < -0.25
15 | SLLCLRAPFTTGLSSKELRD | -0.201
16 | RGPLLYRYYEQ | < -0.25
17 | FVRCRAGRNMEGPGLGLSDK | -0.25
18 | ANLNESRCNCSQPPPSDSGQ | < -0.25
19 | SIGPVICISSSFNYQSIHTT | < -0.25
20 | TEYEASQL | < -0.25
21 | EPRD | < -0.25
22 | SRDRT | < -0.25
23 | LEWGANMAHAVLDLVDVNHY | < -0.25

Row | Substance | growth estimate
24 | EDVVQPRGELAPS | < -0.25
25 | NLSRSIEDRRHAIVSTG | < -0.25
26 | HDTAP | < -0.25
27 | GELGDMAPTRVCGEWNVVAT | < -0.25
28 | DNNTALVCPFKSHLYVADSR | -0.244
29 | SVDPLRPYNTQC | < -0.25
30 | PRRDEALGGFTVRLKIASKL | < -0.25
31 | RLTRPRLGYDKIFVLVRPLT | < -0.25
32 | FRSQSFPQRILQPHVARVRH | < -0.25
33 | ASCVVHDRDRLLHRSFR | < -0.25
34 | HWDRWERLSPLWRRHGLNT | < -0.25
35 | FQLIADL | < -0.25
36 | IDVKLGVIRVREARFCPRMS | < -0.25
37 | PSRINLLRGCKPITARFTEE | < -0.25
38 | GLKYPTRAFQRFFGYKVAWV | < -0.25
39 | VTACTRTYRQFIRLC | < -0.25
40 | IGTGAIRREARLRVGPQGSI | < -0.25
41 | KVNGLGYPRGCRCLGDKRRQ | < -0.25
42 | LPACTKSRMILSVFVNVH | < -0.25
43 | ACFEGSGKCPCHGALGLHAA | < -0.25
44 | DVVQSFAPWGCDFSGVGSGA | -0.225
45 | VENFPGYLVDHIWREAYSP | < -0.25
46 | QAGISSYVDLGFRSVSYCET | < -0.25

Row | Substance | growth estimate
47 | WDHLQRPGLDSESREVSDHR | < -0.25
48 | YGTGGNHGLGVTGAGPVS | < -0.25
49 | RKLI | < -0.25
50 | NRNVIQGSKDVVGALHSLVR | < -0.25
51 | CGHRGTVKPCGKVSPKVVIR | < -0.25
52 | DARVPYRRAQG | < -0.25
53 | SSLEERWLAHPRQGSLGPC | < -0.25
54 | PHEWNKDM | < -0.25
55 | HISAPGHAT | -0.229
56 | EYRDFWKMLCLRRPHTTSVL | < -0.25
57 | VVNT | < -0.25
58 | CISCYASTVLSQQAL | < -0.25
59 | VFISL | < -0.25
60 | HRCLRDLSPIEFESACNRKS | < -0.25
61 | RNGS | < -0.25
62 | ALSGRLDGCCQGLDDLARER | < -0.25
63 | WTSGCI | < -0.25
64 | NTTIVVRPKH | < -0.25
65 | TSTSNTNA | < -0.25
66 | TGLAFFLGCKTTL | < -0.25
67 | AWSEFDNEGCLVSELVMR | -0.246
68 | IKRYWDPTIAM | < -0.25
69 | DSNL | < -0.25

Row | Substance | growth estimate
70 | RSSKDSLLPTYCEVHVDHRS | < -0.25
71 | ASQSNMPY | < -0.25
72 | VGTRTEHAK | < -0.25
73 | SFASHRYRRSGVGRDNAPTR | < -0.25
74 | DDNRRPLLPGG | < -0.25
75 | GPGSARNRCGRIQKGR | < -0.25
76 | PDGAKAVAWDVVRNIRTSQE | < -0.25
77 | RGINLILARRLVHPLRATPT | < -0.25
78 | PTWHHLVAPGFGYQAITLGK | < -0.25
79 | LPTGSNASTTFASFGAWSAF | < -0.25
80 | TDG | -0.2497 ± 0.00035
81 | WIAR | < -0.25
82 | LTAPAV | < -0.25
83 | PQITCRRRVVCVQGAFWSGR | < -0.25
84 | DVAMYFNLLGCSRHSEMIDD | < -0.25
85 | PCP | < -0.25
86 | VIIGTSLRANV | -0.245
87 | AYDAWGRT | < -0.25
88 | SCNAVQSQTSRDDICTTTRC | < -0.25
89 | RTWGGIELINVVTNLSRAEL | < -0.25
90 | EDRRTR | < -0.25
91 | HGVGPGIISQT | < -0.25
92 | CRYGCRRREYATGVRLFTEQ | < -0.25

Taken from the entries so far for reference:
Row | Substance | growth estimate
79 | LPTGSNASTTFASFGAWSAF | < -0.25
80 | TDG | -0.2497 ± 0.00035
81 | WIAR | < -0.25
82 | LTAPAV | < -0.25

Later entries.

Row | Substance | growth estimate
93 | LCR | < -0.25
94 | PRLDGTFAESLEF | < -0.25
95 | AMIFR | 0.183
96 | RWMTFFL | < -0.25
97 | GNSMFVLWYLAASPFS | < -0.25
98 | IPREVCVLRGYPARAGMRPR | < -0.25
99 | GRV | -0.211 ± 0.043
100 | TSAW | -0.215
101 | CVGNSWGLLTRHFRETGRAQ | < -0.25
102 | CRFPPRNRLWVPRTITWVRD | < -0.25
103 | PDPRNLRRREAVAACKC | < -0.25
104 | NAWVAVLRVLRPA | < -0.25
105 | RTCH | -0.245
106 | RKAHSSCHSRLWMFLCEWIT | < -0.25
107 | RCDI | < -0.25
108 | RYNFQSG | < -0.25
109 | ESQTSLERSFILI | < -0.25
110 | VCWFRSV | < -0.25
111 | ILH | < -0.25
112 | RMVQTKGS | < -0.25
113 | LSERPF | < -0.25
114 | PWGELLTVYPARHGTAIAKR | < -0.25
115 | RVCGGNLGGSTVSGQGLSAS | < -0.25

Retrieved one by one from above, two records:
Row | Substance | growth estimate
106 | RKAHSSCHSRLWMFLCEWIT | < -0.25
108 | RYNFQSG | < -0.25

More records:

Row | Substance | growth estimate
116 | AATTLRWGLTQRSRRLGTAG | < -0.25
117 | LIVARELTLILHWTLAVG | < -0.25
118 | GSRDAAGWKCGVGFKTVSLG | < -0.25
119 | GGRPGSD | < -0.25
120 | ARDV | < -0.25
121 | ALRLSRCAL | < -0.25
122 | WSYLIFAFHRRWIPQYIT | < -0.25
123 | KVSNYLNVARNRG | < -0.25
124 | ETRGVATAGGPCVHPLTCGM | < -0.25
125 | LERIFENRWPLIARCAKRGG | -0.243
126 | TMGYLIQNAPRLTKWLR | < -0.25
127 | GRFTALA | < -0.25
128 | NTAY | < -0.25
129 | YRVRGL | < -0.25
130 | GLPNGLAMMVTRGTRPGN | < -0.25
131 | PSEISDGRVTVNPRHSLIIG | < -0.25
132 | EPWSAGGLFAVKRIDTCLAL | < -0.25
133 | QYIA | < -0.25
134 | YDNAHSEGDG | < -0.25
135 | SSQVEPGI | < -0.25
136 | AVLSKTIGGGRPVHWWAGIT | < -0.25
137 | VFFLSHALHVKPVQCSPHRT | < -0.25
138 | FPGIFRKTFNCWFPVIGHSC | < -0.25

Exported comma-delimited: entries from further up
Row,Substance,growth estimate
9,DELYKVQRSHVT,< -0.25
26,HDTAP,< -0.25
31,RLTRPRLGYDKIFVLVRPLT,< -0.25
75,GPGSARNRCGRIQKGR,< -0.25

(listing goes on)

Row | Substance | growth estimate
139 | HERASAEFEKTSFCSTNMEP | < -0.25
140 | SVSG | < -0.25
141 | RDGYPCGLLSDSLNGIEVRD | < -0.25
142 | NMVRRETPLGARPVFEPMLW | -0.218
143 | IRTGFPMS | < -0.25
144 | IGGKCDRYPGLLPGGCHYRR | -0.246
145 | SPQRALSFVPRDCPPNRLMI | < -0.25
146 | PLSVQRL | < -0.25
147 | QIPGMDLIPRRRTPYPVY | < -0.25
148 | GRWAVIPDYQP | < -0.25
149 | GDFSLRHSAHGYEGWIVRVS | < -0.25
150 | FDEGVHTGSTGRLVVLHVYG | < -0.25
151 | CTQIPSAVGLAIGELLFKDA | < -0.25
152 | CNLQRGLPITSAPLNVAPVA | < -0.25
153 | GLTTVQHK | < -0.25
154 | GQSVETGTLRVA | < -0.25
155 | CPRITLHPSNGSAVNNPPAQ | < -0.25
156 | VRVVTDRRVVLAWSGP | < -0.25
157 | DRARSVL | < -0.25
158 | VTREEAVRLLEVLVMLSEPP | < -0.25
159 | PCRHRFLDGSASRDLPEISA | < -0.25
160 | KISCHSLPPVSPGL | < -0.25
